PubChem BioAssay AID1224830 | NIAID | 2016
Purpose: 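Genes whose knock-down alters the TNF-alpha reporter response to LPS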 (primary screen). Cells: human THP-1 monocytic leukaemia cells, TNF dual-luciferase reporter clone, PMA-differentiated to macrophage-like cells. Reagents: siRNA pool against human genes, 50 nM. Time to read-out: LPS for 4 h, given about 3 days after siRNA transfection. Treatment: bacterial LPS (TLR4 ligand), 10 ng/ml. Detection: 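TNF firefly reporter luminescence divided by renilla, normalised to the plate median, then turned into a robust z-score for each replicate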. Direction: TNF reporter robust z-score: higher = stronger TNF reporter response to LPS. Call rule: 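Each well counts as active if its z-score is over 2.8 or under -1.5; controls are left without a call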.
The whole screen tested about 18,000 reagents; this is an unselected part. In the full data, about 2,900 (16%) were called active. 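Calls are made per well; low scores hint the gene aids the LPS response, high scores that it dampens it.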 Repeated entries: four replicate wells of each siRNA pool.

CMKLR1 | TNF reporter robust z-score: -0.07; call: inactive
CMKLR1 | TNF reporter robust z-score: -0.05; call: inactive
CMKLR1 | TNF reporter robust z-score: -0.71; call: inactive
CMKLR1 | TNF reporter robust z-score: -0.35; call: inactive
CNOT12 | TNF reporter robust z-score: 1.01; call: inactive
CNOT12 | TNF reporter robust z-score: 0.38; call: inactive
CNOT12 | TNF reporter robust z-score: 0.88; call: inactive
CNOT12 | TNF reporter robust z-score: 0.96; call: inactive
FIP1L1 | TNF reporter robust z-score: 1.02; call: inactive
FIP1L1 | TNF reporter robust z-score: -0.18; call: inactive
FIP1L1 | TNF reporter robust z-score: -0.4; call: inactive
FIP1L1 | TNF reporter robust z-score: -0.01; call: inactive
DPM1 | TNF reporter robust z-score: -0.22; call: inactive
DPM1 | TNF reporter robust z-score: 1.12; call: inactive
DPM1 | TNF reporter robust z-score: -0.16; call: inactive
DPM1 | TNF reporter robust z-score: 2; call: inactive
VAV3 | TNF reporter robust z-score: 0.06; call: inactive
VAV3 | TNF reporter robust z-score: 0.9; call: inactive
VAV3 | TNF reporter robust z-score: 0.03; call: inactive
VAV3 | TNF reporter robust z-score: 0.23; call: inactive
MFNG | TNF reporter robust z-score: -1.18; call: inactive
MFNG | TNF reporter robust z-score: -0.97; call: inactive
MFNG | TNF reporter robust z-score: -0.93; call: inactive
MFNG | TNF reporter robust z-score: -0.74; call: inactive
MOB1B | TNF reporter robust z-score: -1.08; call: inactive
MOB1B | TNF reporter robust z-score: -0.35; call: inactive
MOB1B | TNF reporter robust z-score: -0.78; call: inactive
MOB1B | TNF reporter robust z-score: -0.27; call: inactive
CDPF1 | TNF reporter robust z-score: 0.92; call: inactive
CDPF1 | TNF reporter robust z-score: 1.52; call: inactive
CDPF1 | TNF reporter robust z-score: 0.83; call: inactive
CDPF1 | TNF reporter robust z-score: 1.34; call: inactive
